Laboratory results as given in patent publication US20190374627A1, “TARGET PEPTIDES FOR CANCER THERAPY AND DIAGNOSTICS” (priority 2016, published 2019).

Test system: HCC tumor tissue, adjacent liver tissue, HepG2 cells
Assay: Identification of MHC class I-bound phosphopeptides by W6/32 immunoprecipitation, IMAC and HPLC-ESI-MS/MS
Parameters: species or system human
Conditions: for Found on: sample (HCC tumor T, adjacent liver N, HepG2) on which the phosphopeptide was identified; for Copies/cell: presentation of HCC-associated HLA-A*0201-restricted MHC-I-pP per cell; for Found on other cancers: other malignancies on which the MHC-I-pP was also identified

Row | Substance | Found on | Copies/cell | Found on other cancers
1 | KRYsGNmEY: MHC-I-pP identified for serine/threonine protein kinases LATS1 and LATS2 (KRYSGNMEY; phosphoserine; oxidized methionine; (4)...(4) The amino acid at this position is optionally phosphorylated; listed as Homo sapiens) | LL3907T; also recorded: LL370T; also recorded: LL981T; also recorded: LL4857T |  | 
2 | KRYsRALYL (KRYSRALYL; phosphoserine; (4)...(4) The amino acid at this position is optionally phosphorylated; listed as Homo sapiens) | LL370T |  | 
3 | LLDPSRSYsY: GAREM1 phosphopeptide, HLA-A*01 (LLDPSRSYSY; phosphoserine; (9)...(9) The amino acid at this position is optionally phosphorylated; listed as Homo sapiens) | LL981T |  | 
4 | PmVTLsLNL (PMVTLSLNL; phosphoserine; oxidized methionine; (6)...(6) The amino acid at this position is optionally phosphorylated; listed as Homo sapiens) |  | 6 Copies/cell | 
5 | REAPsPLmI (REAPSPLMI; phosphoserine; oxidized methionine; (5)...(5) The amino acid at this position is optionally phosphorylated; listed as Homo sapiens) | LL3907T |  | 
6 | REVsPAPAV (REVSPAPAV; phosphoserine; (4)...(4) The amino acid at this position is optionally phosphorylated; listed as Homo sapiens) | LL3907T |  | 
7 | REYGsTSSI (REYGSTSSI; phosphoserine; (5)...(5) The amino acid at this position is optionally phosphorylated; listed as Homo sapiens) | LL3907T |  | 
8 | RLAsYLDRV: KRT18 phosphopeptide, HLA-A*0201 (RLASYLDRV; phosphoserine; (4)...(4) The amino acid at this position is optionally phosphorylated; listed as Homo sapiens) |  | 0.4 - 1.8 Copies/cell | CRC
9 | RLFsKELRC: TAF13 phosphopeptide, HLA-A*0201 (RLFSKELRC; phosphoserine; (4)...(4) The amino acid at this position is optionally phosphorylated; listed as Homo sapiens) |  | 0.3 Copies/cell | Ovarian Ca, Melanoma
10 | RLLsPQQPAL: MEF2D phosphopeptide, HLA-B*0702 (RLLSPQQPAL; phosphoserine; (4)...(4) The amino acid at this position is optionally phosphorylated; listed as Homo sapiens) | LL370T |  | 
11 | RLSsPLHFV: FAM134A phosphopeptide, HLA-A*0201 (RLSSPLHFV; phosphoserine; (4)...(4) The amino acid at this position is optionally phosphorylated; listed as Homo sapiens) |  | 0.3 - 1 Copies/cell | CRC, Melanoma, Hematological Ca
12 | RPAsAGAmL: MEF2D phosphopeptide, HLA-B*0702 (RPASAGAML; phosphoserine; oxidized methionine; (4)...(4) The amino acid at this position is optionally phosphorylated; listed as Homo sapiens) | LL4857T |  | 
13 | RPAsPGPSL: MICALL2 phosphopeptide, HLA-B*0702 (RPASPGPSL; phosphoserine; (4)...(4) The amino acid at this position is optionally phosphorylated; listed as Homo sapiens) | LL4857T |  | 
14 | RPDVAKRLsL: BCAR3 phosphopeptide, HLA-B*0702 (RPDVAKRLSL; phosphoserine; (9)...(9) The amino acid at this position is optionally phosphorylated; listed as Homo sapiens) | LL4857T |  | 
15 | RPDsPTRPTL: MICAL3 phosphopeptide, HLA-B*0702 (RPDSPTRPTL; phosphoserine; (4)...(4) The amino acid at this position is optionally phosphorylated; listed as Homo sapiens) | LL4857T |  | 
16 | RPIsPRIGAL: EPN1 phosphopeptide, HLA-B*0702 (RPISPRIGAL; phosphoserine; (4)...(4) The amino acid at this position is optionally phosphorylated; listed as Homo sapiens) | LL4857T |  | 
17 | RPRAAtVV: PRKAR1A phosphopeptide, HLA-B*0702 (RPRAATVV; phosphothreonine; (6)...(6) The amino acid at this position is optionally phosphorylated; listed as Homo sapiens) | LL4857T |  | 
18 | RPRsAVLL: AKAP13 phosphopeptide, HLA-B*0702 (RPRSAVLL; phosphoserine; (4)...(4) The amino acid at this position is optionally phosphorylated; listed as Homo sapiens) | LL4857N + T |  | 

Row | Substance | Found on | Copies/cell | Found on other cancers
19 | RQAsIELPSMAV: LSP1 phosphopeptide, HLA-A*0201 |  | 0.1 Copies/cell | CRC, Hematological Ca
20 | RQDsTPGKVFL: NR2C1 phosphopeptide, HLA-A*0201 (RQDSTPGKVFL; phosphoserine; (4)...(4) The amino acid at this position is optionally phosphorylated; listed as Homo sapiens) |  | 1.1 - 8.4 Copies/cell | Ovarian Ca, CRC, Melanoma,
21 | RQLsSGVSEI: HSPB1 phosphopeptide, HLA-A*0201 (RQLSSGVSEI; phosphoserine; (4)...(4) The amino acid at this position is optionally phosphorylated; listed as Homo sapiens) |  | 0.9 Copies/cell | Ovarian Ca, Melanoma, Hematological
22 | RRDsLQKPGL: MHC-I-pP identified for serine/threonine protein kinases LATS1 and LATS2 (RRDSLQKPGL; phosphoserine; (4)...(4) The amino acid at this position is optionally phosphorylated; listed as Homo sapiens) | LL981T |  | 
23 | RRPsLLSEF (RRPSLLSEF; phosphoserine; (4)...(4) The amino acid at this position is optionally phosphorylated; listed as Homo sapiens) | LL981N + T |  | 
24 | RRPsYTLGM (RRPSYTLGM; phosphoserine; (4)...(4) The amino acid at this position is optionally phosphorylated; listed as Homo sapiens) | LL370T |  | 
25 | RRSFsLE (RRSFSLE; phosphoserine; (5)...(5) The amino acid at this position is optionally phosphorylated; listed as Homo sapiens) | LL370T |  | 
26 | RSDsYVEL: TP53BP1 phosphopeptide, HLA-C*05 (RSDSYVEL; phosphoserine; (4)...(4) The amino acid at this position is optionally phosphorylated; listed as Homo sapiens) | LL4857T |  | 
27 | RSYsYPRQK (RSYSYPRQK; phosphoserine; (4)...(4) The amino acid at this position is optionally phosphorylated; listed as Homo sapiens) | LL4857T |  | 
28 | RTFsPTYGL: SYNM phosphopeptide, HLA-A*0201 (RTFSPTYGL; phosphoserine; (4)...(4) The amino acid at this position is optionally phosphorylated; listed as Homo sapiens) |  | 0.3 - 6.8 Copies/cell | Ovarian Ca, Melanoma, OEAC
29 | RTHsLLLLL (RTHSLLLLL; phosphoserine; (4)...(4) The amino acid at this position is optionally phosphorylated; listed as Homo sapiens) |  | 1-32 Copies/cell | Ovarian Ca, CRC, OEAC, Hematological
30 | RVAsPTSGV: IRS2 phosphopeptide, HLA-A*0201 (RVASPTSGV; phosphoserine; (4)...(4) The amino acid at this position is optionally phosphorylated; listed as Homo sapiens) |  | 0.4 - 0.8 Copies/cell | Ovarian Ca,
31 | SARRtPVSY (SARRTPVSY; phosphothreonine; (5)...(5) The amino acid at this position can be phosphorylated; listed as Homo sapiens) | LL981T |  | 
32 | SIDsPQKL: TP53BP1 phosphopeptide, HLA-C*05 (SIDSPQKL; phosphoserine; (4)...(4) The amino acid at this position is optionally phosphorylated; listed as Homo sapiens) | LL4857T |  | 
33 | SImsPEIQL: CIC phosphopeptide, HLA-A*0201 (SIMSPEIQL; phosphoserine; oxidized methionine; (4)...(4) The amino acid at this position is optionally phosphorylated; listed as Homo sapiens) |  | 0.25 Copies/cell | Ovarian Ca
34 | SMTRsPPRV: SRSF8 phosphopeptide, HLA-A*0201 (SMTRSPPRV; phosphoserine; (5)...(5) The amino acid at this position is optionally phosphorylated; listed as Homo sapiens) | HepG2 | 14 Copies/cell | Ovarian Ca,
35 | SPRRsRSISL (SPRRSRSISL; phosphoserine; (5)...(5) The amino acid at this position is optionally phosphorylated; listed as Homo sapiens) | LL4857T |  | 

“Also recorded” adds a separate entry of the source.
